A short description of this series: Photo-transformation (UV photo-crosslinking) of cross-linkers without initiator, checked by loss of solubility in chloroform. The conditions noted are these: 400 W metal halide lamp, 20 cm.

Consider `C=CC(=O)NC(CC(C)C)C(=O)OCCCCOC(=O)C(CC(C)C)NC(=O)C=C` (centres unmarked) [Leu-4-AA], for which the “Photo-transformation, exposure time 5 min” value is listed as “+”.

As for `CC(C)CC(NC(=O)C=Cc1ccccc1)C(=O)OCCCCOC(=O)C(CC(C)C)NC(=O)C=Cc1ccccc1` (centres unmarked) [Leu-4-CA], the “Photo-transformation, exposure time 5 min” value is reported as “+”.

Regarding `C=C(C)C(=O)NC(CC(C)C)C(=O)OCCCCOC(=O)C(CC(C)C)NC(=O)C(=C)C` (centres unmarked) [Leu-4-MA], the “Photo-transformation, exposure time 5 min” value was “+”.

Regarding `C=CC(=O)NC(CC(C)C)C(=O)OCCCCCCOC(=O)C(CC(C)C)NC(=O)C=C` (centres unmarked) [Leu-6-AA], the “Photo-transformation, exposure time 5 min” value was “+”.

On to `CC(C)CC(NC(=O)C=Cc1ccccc1)C(=O)OCCCCCCOC(=O)C(CC(C)C)NC(=O)C=Cc1ccccc1` (centres unmarked) [Leu-6-CA], for which the “Photo-transformation, exposure time 5 min” value was “−” and the “Photo-transformation, exposure time 10 min” value is on record as “−”. Besides, the “Photo-transformation, exposure time 15 min” value (15 min) was “−”. Moreover, the “Photo-transformation, exposure time 30 min” value (30 min) is on record as “+”.

Turning to `C=C(C)C(=O)NC(CC(C)C)C(=O)OCCCCCCOC(=O)C(CC(C)C)NC(=O)C(=C)C` (centres unmarked) [Leu-6-MA], the “Photo-transformation, exposure time 5 min” value is recorded as “+”.

For the compound `C=CC(=O)NC(Cc1ccccc1)C(=O)OCCCCOC(=O)C(Cc1ccccc1)NC(=O)C=C` (centres unmarked) [Phe-4-AA], the “Photo-transformation, exposure time 5 min” value was “+”.

As for `O=C(C=Cc1ccccc1)NC(Cc1ccccc1)C(=O)OCCCCOC(=O)C(Cc1ccccc1)NC(=O)C=Cc1ccccc1` (centres unmarked) [Phe-4-CA], the “Photo-transformation, exposure time 5 min” value is given as “−” and the “Photo-transformation, exposure time 10 min” value is on record as “+”.

Turning to `C=C(C)C(=O)NC(Cc1ccccc1)C(=O)OCCCCOC(=O)C(Cc1ccccc1)NC(=O)C(=C)C` (centres unmarked) [Phe-4-MA], the “Photo-transformation, exposure time 5 min” value is on record as “+”.

For the compound `C=CC(=O)NC(Cc1ccccc1)C(=O)OCCCCCCOC(=O)C(Cc1ccccc1)NC(=O)C=C` (centres unmarked) [Phe-6-AA], the “Photo-transformation, exposure time 5 min” value is on record as “+”.

`O=C(C=Cc1ccccc1)NC(Cc1ccccc1)C(=O)OCCCCCCOC(=O)C(Cc1ccccc1)NC(=O)C=Cc1ccccc1` (centres unmarked) [Phe-6-CA]: the “Photo-transformation, exposure time 5 min” value is reported as “−” and the “Photo-transformation, exposure time 10 min” value is listed as “+”.

Consider `C=C(C)C(=O)N[C@@H](Cc1ccccc1)C(=O)OCCCCCCOC(=O)[C@H](Cc1ccccc1)NC(=O)C(=C)C` [Phe-6-MA, dimethacrylate of bis(L-Phe)-1,6-hexanediol diester], for which the “Photo-transformation, exposure time 5 min” value was “+”.

Values taken from US7649022B2, “Bioabsorbable elastomeric polymer networks, cross-linkers and methods of use” (priority 2007, dated 2010).
